According to EP1593386A1:
These are yes or no findings as the source states them, for the method shown. In cells and extracts the contact can be indirect. Some entries that bind do so weakly or less than the wild type.

Sequences of proteins named here, by UniProt entry; tags and fusion partners are left off. Residues count along the entry.
UniProt P09564, residues 26-240: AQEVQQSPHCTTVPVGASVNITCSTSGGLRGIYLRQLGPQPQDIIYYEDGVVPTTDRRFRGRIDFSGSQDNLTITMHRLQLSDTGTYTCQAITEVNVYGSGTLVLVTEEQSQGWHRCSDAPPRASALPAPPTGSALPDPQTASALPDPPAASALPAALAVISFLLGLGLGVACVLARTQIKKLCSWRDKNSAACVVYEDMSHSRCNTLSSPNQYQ
UniProt P05556: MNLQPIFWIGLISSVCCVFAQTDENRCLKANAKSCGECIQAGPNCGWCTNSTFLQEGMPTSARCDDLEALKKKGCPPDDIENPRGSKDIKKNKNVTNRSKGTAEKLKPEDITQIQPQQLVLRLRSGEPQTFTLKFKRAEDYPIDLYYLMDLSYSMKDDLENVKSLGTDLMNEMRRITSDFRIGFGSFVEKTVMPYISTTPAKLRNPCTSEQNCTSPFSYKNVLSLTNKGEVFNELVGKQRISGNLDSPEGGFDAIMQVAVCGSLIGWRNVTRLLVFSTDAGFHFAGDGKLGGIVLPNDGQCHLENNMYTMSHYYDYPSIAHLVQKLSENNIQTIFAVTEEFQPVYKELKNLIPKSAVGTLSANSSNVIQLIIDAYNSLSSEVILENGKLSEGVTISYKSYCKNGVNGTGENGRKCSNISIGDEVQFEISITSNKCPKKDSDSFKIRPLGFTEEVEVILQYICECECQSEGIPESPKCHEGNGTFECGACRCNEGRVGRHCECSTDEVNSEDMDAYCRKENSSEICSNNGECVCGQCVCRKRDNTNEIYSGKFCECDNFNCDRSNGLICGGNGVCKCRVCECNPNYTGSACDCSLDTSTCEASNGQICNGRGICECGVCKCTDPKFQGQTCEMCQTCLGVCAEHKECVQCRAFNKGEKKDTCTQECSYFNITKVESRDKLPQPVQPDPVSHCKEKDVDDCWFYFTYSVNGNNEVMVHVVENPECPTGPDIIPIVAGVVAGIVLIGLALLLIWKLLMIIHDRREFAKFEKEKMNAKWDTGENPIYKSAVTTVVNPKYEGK

Assays:
[1] = biological target: CD7 on human peripheral blood T lymphocytes (human) (UniProt P09564); experiment: legend of Figure 3B: bead co-immunoprecipitation, immunoblot
[2] = biological target: integrin β1 on human peripheral blood T lymphocytes (human) (UniProt P05556); experiment: as above
[3] = biological target: integrin β1 on human peripheral blood T lymphocytes (human) (UniProt P05556); experiment: pull-down with galectin-1 coated tosyl-activated magnetic beads on PBT, immunoblot for integrin β1
[4] = biological target: CD7 on human peripheral blood T lymphocytes (human) (UniProt P09564); experiment: pull-down with galectin-1 coated tosyl-activated magnetic beads on PBT, immunoblot for CD7
[5] = biological target: CD7 on human peripheral blood T lymphocytes (human) (UniProt P09564); experiment: summary of the bead co-immunoprecipitation
[6] = biological target: integrin β1 on human peripheral blood T lymphocytes (human) (UniProt P05556); experiment: summary of the bead co-immunoprecipitation

- binding [1]: binds
- binding [2]: binds
- binding [3]: binds
- binding [4]: binds
- binding [5]: binds
- binding [6]: binds
Substance: galectin-1 (from UniProt P09382 2-135) (ligand)
